Laboratory results published in PMC9695041, “The Anti-Breast Cancer Activity of Dihydroartemisinin-5-methylisatin Hybrids Tethered via Different Carbon Spacers” (Molecules, 2022).

Tests used:
Type in all cases: cell-based
[1] = tested on: MCF-7 breast cancer cell line; experiment: MTT antiproliferative assay, MCF-7
[2] = tested on: MDA-MB-231 breast cancer cell line; experiment: MTT antiproliferative assay, MDA-MB-231
[3] = tested on: MCF-7/ADR breast cancer cell line; experiment: MTT antiproliferative assay, MCF-7/ADR
[4] = tested on: MDA-MB-231/ADR breast cancer cell line; experiment: MTT antiproliferative assay, MDA-MB-231/ADR

Row | Compound | SI1: selectivity index IC50(MCF-10A)/IC50(MCF-7) [1] | SI2: selectivity index IC50(MCF-10A)/IC50(MDA-MB-231) [2] | RI1: resistance index IC50(MCF-7/ADR)/IC50(MCF-7) [3] | RI2: resistance index IC50(MDA-MB-231/ADR)/IC50(MDA-MB-231) [4]
1 | 3-(Methoxyimino)-1-(4-(((3R,5aS,6R,8aS,9R,12R,12aR)-3,6,9-trimethyldecahydro-12H-3,12-epoxy[1,2]dioxepino[4,3-i]isochromen-10-yl)oxy)butyl)indolin-2-one [Hybrid 7h] | >1.17 | >1.35 | 0.91 | 1.09
2 | COc1cccc2c1C(=O)c1c(O)c3c(c(O)c1C2=O)C[C@@](O)(C(=O)CO)C[C@@H]3O[C@H]1C[C@H](N)[C@H](O)[C@H](C)O1 [ADR, Adriamycin, reference compound] | – | – | >5.29 | >22.42
3 | C[C@@H]1CC[C@H]2[C@@H](C)C(=O)O[C@@H]3O[C@@]4(C)CC[C@@H]1[C@]32OO4 [ART, Artemisinin] | – | – | >1.14 | >1.38
4 | C[C@H]1[C@@H](O)O[C@@H]2O[C@@]3(C)CC[C@H]4[C@H](C)CC[C@@H]1[C@@]24OO3 [DHA, Dihydroartemisinin] | – | – | 1.08 | 1.19
5 | Cc1ccc2c(c1)C(=O)C(=O)N2CCOC1O[C@@H]2O[C@@]3(C)CC[C@H]4[C@H](C)CC[C@@H]([C@H]1C)[C@@]24OO3 (stereo partly drawn) [Hybrid 6a, 5-Methyl-1-(2-(((3R,5aS,6R,8aS,9R,12R,12aR)-3,6,9-trimethyldecahydro-12H-3,12-epoxy[1,2]dioxepino[4,3-i]isochromen-10-yl)oxy)ethyl)indoline-2,3-dione] | – | – | 0.80 | 0.92
6 | Cc1ccc2c(c1)C(=O)C(=O)N2CCCOC1O[C@@H]2O[C@@]3(C)CC[C@H]4[C@H](C)CC[C@@H]([C@H]1C)[C@@]24OO3 (stereo partly drawn) [Hybrid 6b, 5-Methyl-1-(3-(((3R,5aS,6R,8aS,9R,12R,12aR)-3,6,9-trimethyldecahydro-12H-3,12-epoxy[1,2]dioxepino[4,3-i]isochromen-10-yl)oxy)propyl)indoline-2,3-dione] | – | – | <0.87 | –
7 | Cc1ccc2c(c1)C(=O)C(=O)N2CCCCOC1O[C@@H]2O[C@@]3(C)CC[C@H]4[C@H](C)CC[C@@H]([C@H]1C)[C@@]24OO3 (stereo partly drawn) [Hybrid 6c, 5-Methyl-1-(4-(((3R,5aS,6R,8aS,9R,12R,12aR)-3,6,9-trimethyldecahydro-12H-3,12-epoxy[1,2]dioxepino[4,3-i]isochromen-10-yl)oxy)butyl)indoline-2,3-dione] | – | – | 0.83 | 1.05
8 | Cc1ccc2c(c1)C(=NO)C(=O)N2CCOC1O[C@@H]2O[C@@]3(C)CC[C@H]4[C@H](C)CC[C@@H]([C@H]1C)[C@@]24OO3 (stereo partly drawn) [Hybrid 7a, 3-(Hydroxyimino)-5-methyl-1-(2-(((3R,5aS,6R,8aS,9R,12R,12aR)-3,6,9-trimethyldecahydro-12H-3,12-epoxy[1,2]dioxepino[4,3-i]isochromen-10-yl)oxy)ethyl)indolin-2-one] | – | – | 1.03 | 1.23
9 | Cc1ccc2c(c1)C(=NO)C(=O)N2CCCOC1O[C@@H]2O[C@@]3(C)CC[C@H]4[C@H](C)CC[C@@H]([C@H]1C)[C@@]24OO3 (stereo partly drawn) [Hybrid 7b, 3-(Hydroxyimino)-5-methyl-1-(3-(((3R,5aS,6R,8aS,9R,12R,12aR)-3,6,9-trimethyldecahydro-12H-3,12-epoxy[1,2]dioxepino[4,3-i]isochromen-10-yl)oxy)propyl)indolin-2-one] | – | – | 0.95 | 0.85
10 | Cc1ccc2c(c1)C(=NO)C(=O)N2CCCCOC1O[C@@H]2O[C@@]3(C)CC[C@H]4[C@H](C)CC[C@@H]([C@H]1C)[C@@]24OO3 (stereo partly drawn) [Hybrid 7c, 3-(Hydroxyimino)-5-methyl-1-(4-(((3R,5aS,6R,8aS,9R,12R,12aR)-3,6,9-trimethyldecahydro-12H-3,12-epoxy[1,2]dioxepino[4,3-i]isochromen-10-yl)oxy)butyl)indolin-2-one] | – | – | 1.06 | 1.07
11 | Cc1ccc2c(c1)C(=NNC(N)=O)C(=O)N2CCOC1O[C@@H]2O[C@@]3(C)CC[C@H]4[C@H](C)CC[C@@H]([C@H]1C)[C@@]24OO3 (stereo partly drawn) [Hybrid 7d, 2-(5-Methyl-2-oxo-1-(2-(((3R,5aS,6R,8aS,9R,12R,12aR)-3,6,9-trimethyldecahydro-12H-3,12-epoxy[1,2]dioxepino[4,3-i]isochromen-10-yl)oxy)ethyl)indolin-3-ylidene)hydrazine-1-carboxamide] | – | – | 1.22 | 1.10
12 | Cc1ccc2c(c1)C(=NNC(N)=O)C(=O)N2CCCCOC1O[C@@H]2O[C@@]3(C)CC[C@H]4[C@H](C)CC[C@@H]([C@H]1C)[C@@]24OO3 (stereo partly drawn) [Hybrid 7e, 2-(5-Methyl-2-oxo-1-(4-(((3R,5aS,6R,8aS,9R,12R,12aR)-3,6,9-trimethyldecahydro-12H-3,12-epoxy[1,2]dioxepino[4,3-i]isochromen-10-yl)oxy)butyl)indolin-3-ylidene)hydrazine-1-carboxamide] | – | – | 1.08 | 1.11
13 | Cc1ccc2c(c1)C(=NNC(N)=S)C(=O)N2CCCOC1O[C@@H]2O[C@@]3(C)CC[C@H]4[C@H](C)CC[C@@H]([C@H]1C)[C@@]24OO3 (stereo partly drawn) [Hybrid 7f, 2-(5-Methyl-2-oxo-1-(3-(((3R,5aS,6R,8aS,9R,12R,12aR)-3,6,9-trimethyldecahydro-12H-3,12-epoxy[1,2]dioxepino[4,3-i]isochromen-10-yl)oxy)propyl)indolin-3-ylidene)hydrazine-1-carbothioamide] | – | – | 0.78 | 1.06
14 | Cc1ccc2c(c1)C(=NNC(N)=S)C(=O)N2CCCCOC1O[C@@H]2O[C@@]3(C)CC[C@H]4[C@H](C)CC[C@@H]([C@H]1C)[C@@]24OO3 (stereo partly drawn) [Hybrid 7g, 2-(5-Methyl-2-oxo-1-(4-(((3R,5aS,6R,8aS,9R,12R,12aR)-3,6,9-trimethyldecahydro-12H-3,12-epoxy[1,2]dioxepino[4,3-i]isochromen-10-yl)oxy)butyl)indolin-3-ylidene)hydrazine-1-carbothioamide] | – | – | 1.05 | 1.16
15 | CCON=C1C(=O)N(CCOC2O[C@@H]3O[C@@]4(C)CC[C@H]5[C@H](C)CC[C@@H]([C@H]2C)[C@@]35OO4)c2ccc(C)cc21 (stereo partly drawn) [Hybrid 7i, 3-(Ethoxyimino)-5-methyl-1-(2-(((3R,5aS,6R,8aS,9R,12R,12aR)-3,6,9-trimethyldecahydro-12H-3,12-epoxy[1,2]dioxepino[4,3-i]isochromen-10-yl)oxy)ethyl)indolin-2-one] | – | – | 0.89 | 1.03
